Measured values as given in the supplement of paper PMC8846439.
Counter-ions that a name gives are not always drawn. This is one part of the list. Repeats are few or missing, and single values can be far off.

System: Trypanosoma brucei brucei bloodstream form L262P (kDNA-independent)
Experiment: viability Z-score (nuclei count per well, median-polish normalised, relative to plate distribution); higher = more viable parasites (negative = growth inhibition)
Details: 4 days; compound concentration: 10 µM (some Prestwick/PKE rows may be 1 µM / not distinguished)

Structure (SMILES)	viability Z-score
O=C(C/C1=N/C(=NO1)C=2C=CC(=CC=2)OC)N(C)C=3C=CC=CC=3CC	-3.43
N#C/C2=C(/NC(C)=C(C(=O)NC=1C=CC=CC=1[F])[C@@]2([H])C=3OC=CC=3)[S]CC(=O)C=4C=CC(C)=CC=4	-2.49
O=[S](=O)(NCC(=O)O)C1=CC=C(/C=C1/[I])[N+]([O-])=O	-2.14
CCCc1cnc(N2CCN(S(=O)(=O)c3cccs3)CC2)nc1	-5.13
CC=2C=CC(NC(=O)NC=1/C=C(/[F])C=CC=1)=NC=2	-1.88
O=C(/C2=C(\C)NC=1CCCC(=O)C=1[C@]2([H])C3=CC([Br])=C(O)C(=C3)OCC)N4CCCCC4	-3.58
CN(CCN(C)C)C1=NC(=NC=2CCN(CC1=2)C/C3=C/C=CC=C3)N4CCCC4	-3.98
O=C(C=1C=CC=CC=1[S]/C2=C/C(OC)=CC=C2)N3CCN(CC3)C=4C=C(C=CC=4)C([F])([F])[F]	-4.72
N#CC=4OC=1/N=C(/C)NC=1C2(CCN(CC2)C/C3=C/C=CC=C3)C=4N	-3.24
CC(=O)Nc1ccccc1OCCN(Cc1ccccc1)C(=O)c1ccc(Cl)cc1	-6.73
O=C3N(C)C=2N=CN(CC(=O)N/C1=C/C=C(C=C1)[S](=O)(=O)NCCCC)C=2C(=O)N3C	-4.12
Cc1cccc(-c2nc3c(cnn3-c3ccccc3)c(=O)[nH]2)c1	-2.16
CCOC(=O)NN[C@@]1(C#N)CCSC1	-1.45
O=C(NC=1/C=C(/[F])C(C)=CC=1)N/C2=C/C=CC=C2	-1.92
O=[S](=O)(C)N(NC(=O)C(O)(CCCCCC)CCCCCC)C1=C/C=C(/C)C=C1	-2.84
O=C(N[C@]1([H])CCCCC1)[C@@]2(CCCCC2)N(C=O)C(C)(C)[H]	-2.11
N#C/C2=C(\N)OC=1NN=C(C=1[C@@]2([H])C=3OC(=CC=3)[N+]([O-])=O)C4=CN=CC=C4	-1.54

Structure (SMILES)	viability Z-score
O=[S](=O)(CC[S]CCOC(=O)N/C1=C/C=CC=C1)C2=C/C=C(/[Cl])C=C2	-5.75
O=C(N/C2=C/C=C(/CN1/N=C(/C)C=C1C)C=C2)C3=CC(=NC=4C=CC=CC3=4)C=5/C=C(/C)C(C)=CC=5	-3.54
O=C(O)[C@@]([H])(N/C1=N/C=NC=2C=CC=CC1=2)[C@@](C)([H])CC	-4.24
Cn1c(N/N=C/c2cn(Cc3ccccc3)c3ccccc23)nc2ccccc21	-1.04
O=C1NC(=NC2=C1C4(CC=3C=CC=CC2=3)CCCC4)[S]C(=O)C/C5=C/C=C(/[Cl])C=C5	-4.87
O=C(N[C@@]1([H])C[C@@]2([H])CCC[C@]([H])(C1)N2CCCC)N3CCCC3 (stereo partly drawn)	-5.32
COc1ccc(C[C@H](C)NC[C@@H](O)c2ccc(O)c(NC=O)c2)cc1.COc1ccc(C[C@H](C)NC[C@@H](O)c2ccc(O)c(NC=O)c2)cc1 [Formoterol fumarate]	-4.6
[Cl]/C1=C/C=C(C=C1)C2=N[S]C=3C2=NC=NC=3N6CCN(CC=5C=C4OCOC4=CC=5)CC6	-6.26
c12N(/C=C(\C(c1cc(c(n2)N1CC(CC1)N)F)=O)/C(=O)O)c1c(cc(cc1)F)F (stereo not drawn) [Tosufloxacin hydrochloride]	-3.34
O=C(N[C@]([H])(COC/C1=C/C=CC=C1)C(=O)N[C@@]([H])(CC[S]C)C(=O)N)[C@@]2([H])CCC(=O)N2C(=O)OC/C3=C/C=CC=C3	-5.05
O=C(N/C1=C/N(N=C1)CC=2C=CC=CC=2C)C=3C=C(N=C4C=3C=C/C=C4/C)C5=CC=NC=C5	-2.39
O=[N+]([O-])C=4/C=C(/NC=1N=C(N=C2C=CC=CC=12)C3=CC=CC=C3)C=CC=4	-5.7
O=C(/C1=N/OC2=C1COC=3C=CC=CC2=3)N4CCN(CC4)C=5C=C(C=CC=5)C([F])([F])[F]	-4.59
[C@@]12([C@@]([C@]3([C@@](C[C@@H]1O)(OC3)[H])OC(=O)C)([C@@H]([C@]1(C(\C(\[C@H](C2=O)OC(=O)C)=C(/[C@H](C1)OC([C@@H]([C@@H](NC(=O)c1ccccc1)c1ccccc1)O)=O)\C)(C)C)O)OC(=O)c1ccccc1)[H])C [Paclitaxel]	-4.63
CS(=O)(=O)O.Cn1cc(C2=C(c3cn(CCCSC(=N)N)c4ccccc34)C(=O)NC2=O)c2ccccc21 [Ro 31-8220 mesylate]	-3.6
[F]C([F])([F])[C@](O)([H])CNC/C1=C/C=C(C=C1)C=2[S]C=CC=2	-2.09

Single entries from the results shown:
viability Z-score, [F]C([F])([F])[C@](O)([H])CNC/C1=C/C=C(C=C1)C=2[S]C=CC=2 is entered as -2.09
viability Z-score, O=C(NC=1/C=C(/[F])C(C)=CC=1)N/C2=C/C=CC=C2 is entered as -1.92
